Source: the supplement of paper PMC12067093, “Discovery and optimisation of a covalent ligand for TRIM25 and its application to targeted protein ubiquitination” (Chemical Science, 2025)
The other results are listed elsewhere or left out.

Compound: CC1Cc2ccccc2N1C(=O)C1CCCN(C1)C(=O)CCl (mixture of isomers) [TRIM25 ligand 11 (diastereomer mixture)]
Experiment: probe-labelled cysteine peptide fold change vs DMSO (competition) (log2 fold change); higher = less target engagement (more negative = stronger competition)
Details: THP-1, incubation time: 4 h
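Also: competitive chemoproteomic profiling in live THP-1 cells with an iodoacetamide desthiobiotin (IA-DTB) probe, comparing probe-labelled peptide intensities in compound-treated cells against DMSO-treated controls.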

Target	probe-labelled cysteine peptide fold change (10 µM)	probe-labelled cysteine peptide fold change (50 µM)
ELP3_Q9H9T3_456_CSEETFR (UniProt Q9H9T3)	0.298	0.202
EMB_Q6PCB8_180_NKPLISYVGDSTVLTCK (UniProt Q6PCB8)	0.0191	0.291
EPB41L2_O43491_248_VCEHLNLLEK (UniProt O43491)	0.0945	0.146
EML3_Q32P44_310_CLAVHPDGVR (UniProt Q32P44)	-0.0769	0.0339
ENOSF1_Q7L5Y1_67_GTEVVVCAVNALAHHVLNK (UniProt Q7L5Y1)	-0.0438	0.0621
ENG_P17813_549_TGTLSCTVALRPK (UniProt P17813)	0.0148	-0.0345
EIF3G_O75821_139_EDLNCQEEEDPMNK (UniProt O75821)	0.0196	-0.165
EIF3J_O75822_207_KITNSLTVLCSEK (UniProt O75822)	0.0104	-0.176
EPHX2_P34913_154_MHFDFLIESCQVGMVKPEPQIYK (UniProt P34913)	-0.417	-0.103
EMC4_Q5J8M3_69_CWDIALGPLK (UniProt Q5J8M3)	0.299	0.14
EPRS_P07814_1301+1309_VACVQVVIIPCGITNALSEEDK (UniProt P07814)	-0.162	-0.139
EIF4G1_Q04637_821_CLMALK (UniProt Q04637)	0.0384	0.13
EML2_O95834_301_ITQAVLGAHDGGVFGLCALR (UniProt O95834)	-0.0268	-0.0106
EP300_Q09472_1272_MHQICVLHHEIIWPAGFVCDGCLK (UniProt Q09472)	0.0152	0.0262
EMG1_Q92979_230_MVSISNYPLSAALTCAK (UniProt Q92979)	0.154	-0.113
ELAC2_Q9BQ52_51_RGPSGCSGGPNTVYLQVVAAGSR (UniProt Q9BQ52)	0.0651	-0.0115
ELAC2_Q9BQ52_421_EGPTLSVPMVQGECLLK (UniProt Q9BQ52)	-0.195	-0.0203
EPS15L1_Q9UBC2_470_CQDETQMISSLK (UniProt Q9UBC2)	-0.0732	-0.171
EMG1_Q92979_66_TYELLNCDK (UniProt Q92979)	-0.0851	-0.103
EPRS_P07814_336+337_KGSQFGQSCCLR (UniProt P07814)	-0.165	-0.177
EPRS_P07814_697_EAPCVLIYIPDGHTK (UniProt P07814)	-0.0281	-0.0379

Target	probe-labelled cysteine peptide fold change (10 µM)	probe-labelled cysteine peptide fold change (50 µM)
EIF4G3_O43432_1411_LDFIESDSPCSSEALSK (UniProt O43432)	0.109	0.0435
EML4_Q9HC35_820_VHLFQYPCSK (UniProt Q9HC35)	-0.00112	-0.0256
ERBIN_Q96RT1_464_AQVAFECDEDKDER (UniProt Q96RT1)	-0.00324	-0.133
EIF5B_O60841_635_APIICVLGHVDTGK (UniProt O60841)	-0.115	-0.152
EPHX2_P34913_309_GYGESSAPPEIEEYCMEVLCK (UniProt P34913)	0.335	-0.196
EIF3K_Q9UBQ5_85_ALTNLPHTDFTLCK (UniProt Q9UBQ5)	0.0809	0.217
EIF3D_O15371_258_TQGNVFATDAILATLMSCTR (UniProt O15371)	0.217	0.233
ERAP1_Q9NZ08_907_CVQQTIETIEENIGWMDK (UniProt Q9NZ08)	-0.0372	-0.0636
EIF4G2_P78344_282_MCSLMLSK (UniProt P78344)	0.0537	-0.00385
EIF4G3_O43432_913_MLTEAIMHDCVVK (UniProt O43432)	-0.018	-0.0478
ELP2_Q6IA86_769_KTDQVPEINDWTHCVETSQSQSHTLAIR (UniProt Q6IA86)	0.311	0.0912
EIF4A2_Q14240_132_VILALGDYMGATCHACIGGTNVR (UniProt Q14240)	-0.0236	0.0601
EPS15_P42566_824_EKDPEIFCDPFTSATTTTNK (UniProt P42566)	-0.0973	-0.355
ELANE_P08246_208_QAGVCFGDSGSPLVCNGLIHGIASFVR (UniProt P08246)	0.19	0.103
EIF3J_O75822_207_ITNSLTVLCSEK (UniProt O75822)	-0.123	-0.423
ELP2_Q6IA86_810_EAEGAEWLHFASCGEDHTVK (UniProt Q6IA86)	0.0967	0.0179
EIF3D_O15371_327_NLAMEATYINHNFSQQCLR (UniProt O15371)	-0.201	-0.044
ENTPD1_P49961_255_DYNVYTHSFLCYGK (UniProt P49961)	0.0736	0.271
ELL_P55199_595_CEYLHSK (UniProt P55199)	0.0432	0.107
ELOB_Q15370_60_TLGECGFTSQTARPQAPATVGLAFR (UniProt Q15370)	-0.0882	-0.281
EIF3K_Q9UBQ5_87_CMIDQAHQEERPIR (UniProt Q9UBQ5)	0.0313	0.0963

Whole records, quoted from the list. Values in the order: probe-labelled cysteine peptide fold change (10 µM) | probe-labelled cysteine peptide fold change (50 µM)
ELOB_Q15370_60_TLGECGFTSQTARPQAPATVGLAFR (UniProt Q15370) as listed: -0.0882 | -0.281
EIF5B_O60841_635_APIICVLGHVDTGK (UniProt O60841) as listed: -0.115 | -0.152
EIF3K_Q9UBQ5_85_ALTNLPHTDFTLCK (UniProt Q9UBQ5) as listed: 0.0809 | 0.217
EPB41L2_O43491_248_VCEHLNLLEK (UniProt O43491) as listed: 0.0945 | 0.146

Further records:

Target	probe-labelled cysteine peptide fold change (10 µM)	probe-labelled cysteine peptide fold change (50 µM)
EML2_O95834_395_AQFVTCGQDK (UniProt O95834)	0.034	-0.00802
ELP2_Q6IA86_38_GLLAFGTSCSVVLYDPLKR (UniProt Q6IA86)	-0.0266	0.023
EPB41L2_O43491_232_VTLLDGTEYSCDLEK (UniProt O43491)	-0.091	-0.062
EOGT_Q5NDL2_61_HIATVCR (UniProt Q5NDL2)	0.0822	0.0837
EIF4H_Q15056_85_GFCYVEFDEVDSLK (UniProt Q15056)	-0.0539	-0.0183
EPS15_P42566_782_IGTPTRPCPLPPGKR (UniProt P42566)	-0.193	-0.265
ERAL1_O75616_425_GHVISQIAQEAGHDLMDIFLCDVDIR (UniProt O75616)	-0.0363	-0.0198
EIF4A1_P60842_131+134_VVMALGDYMGASCHACIGGTNVR (UniProt P60842)	0.301	0.121
EPN1_Q9Y6I3_205_EEADQPPSCGPEDDAQLQLALSLSR (UniProt Q9Y6I3)	0.47	0.189
ELANE_P08246_187_SNVCTLVR (UniProt P08246)	0.174	0.0578
EIF3E_P60228_350_IHQCISINMLADK (UniProt P60228)	0.0357	0.0144
EMB_Q6PCB8_142_QMGSYSCFFR (UniProt Q6PCB8)	0.0371	0.0881
EML2_O95834_110_CLAIHPDMVTIATGQVAGTTK (UniProt O95834)	0.0152	0.0129
ELAC1_Q9H777_130_TMELSHTELVFHYVVHELVPTADQCPAEELK (UniProt Q9H777)	0.159	0.119
ELP5_Q8TE02_151_LPCTTLCQVLHAVSHQDSCPGDSSSVGK (UniProt Q8TE02)	0.0565	0.114
EPRS_P07814_337_GSQFGQSCCLR (UniProt P07814)	0.0735	0.124
EIF4G3_O43432_1534_MFFDCLYDEEVISEDAFYK (UniProt O43432)	0.017	0.00303
EP300_Q09472_1275_MHQICVLHHEIIWPAGFVCDGCLK (UniProt Q09472)	-0.0791	0.149
EIF4G3_O43432_1471_ALMTAVCK (UniProt O43432)	0.0497	0.131
ELOB_Q15370_89_ADDTFEALCIEPFSSPPELPDVMK (UniProt Q15370)	0.123	-0.171
ELF2_Q15723_470_IITIPATQLAQCQLQTK (UniProt Q15723)	-0.0971	-0.199

Target	probe-labelled cysteine peptide fold change (10 µM)	probe-labelled cysteine peptide fold change (50 µM)
EP300_Q09472_364_QCNLPHCR (UniProt Q09472)	0.0578	0.0375
EPRS_P07814_1301_VACVQVVIIPCGITNALSEEDK (UniProt P07814)	0.0163	-0.00686
ELOC_Q15369_74_VCMYFTYK (UniProt Q15369)	0.00795	0.0702
EIF5_P55010_122_QTIGNSCK (UniProt P55010)	0.0596	0.119
EP400_Q96L91_879_EIECFWSNIEQVVEIK (UniProt Q96L91)	-0.322	-0.0992
EMILIN2_Q9BXX0_553_VQVVEDICLLNIQGKPHGMEGALPNREDR (UniProt Q9BXX0)	-0.0207	-0.0746
ELAC2_Q9BQ52_374_FGPDTQHLVLNENCASVHNLR (UniProt Q9BQ52)	0.292	-0.0344
EPRS_P07814_337_KGSQFGQSCCLR (UniProt P07814)	-0.132	-0.0797
ENAH_Q8N8S7_62_KIQDHQVVINCAIPK (UniProt Q8N8S7)	-0.0322	-0.115
ENGASE_Q8NFI3_113_LEDGFNVALEPLACR (UniProt Q8NFI3)	0.199	0.154
ELP5_Q8TE02_52+61_SALCGEQVHILGCEVSEEEFREGFDSDINNR (UniProt Q8TE02)	-0.0628	-0.191
EPRS_P07814_350_IDMSSNNGCMRDPTLYR (UniProt P07814)	-0.228	-0.16
ELOVL5_Q9NYP7_61_NKQPFSCR (UniProt Q9NYP7)	-0.143	-0.0894
EPHX2_P34913_522_GHIEDCGHWTQMDKPTEVNQILIK (UniProt P34913)	-0.128	-0.242
EIF4G1_Q04637_1487_ALMTAVCYSAIIFETPLR (UniProt Q04637)	0.145	0.0271
EPRS_P07814_623_VTWLAETTHALPIPVICVTYEHLITK (UniProt P07814)	0.125	0.261
EML4_Q9HC35_428_TTNEVVLAVEFHPTDANTIITCGK (UniProt Q9HC35)	0.105	-0.0016
EIF3M_Q7L2H7_175_LLYEALVDCKK (UniProt Q7L2H7)	0.102	0.345
EPS15_P42566_419_CAEEAQLISSLK (UniProt P42566)	-0.0743	0.0636
ELAVL1_Q15717_13_SNGYEDHMAEDCRGDIGR (UniProt Q15717)	0.0836	0.0433
